# Source: the supplement of paper PMC8728848
# The list shows a part of the results.
# B1: BIp1-His (Cryptococcus neoformans) (protein)
# chain: MFTKIFVALFAATAVLSAPVESAEKRITHTGRATFYSPSVGIGACGWQNTDEELVVALNAPQYALNADHNCGQSVRITNEQNGNQEIAKVVDLCPGCNDGDLDMSPALFGALNNNDFDQGVFPISWNFLPRDDTSSSN
# Key:
# Assay in all cases: glycan array binding signal (z-score within array); higher = stronger binding
# Conditions in all cases: glycan notation: IUPAC condensed, linker removed
# [1] = target: Neu5Ac(a2-6)GalNAc(b1-4)GlcNAc6S
# In short: (§1)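 Glycan array binding is given as a within-array Z-score, which can be read as non-binding when negative. The arrays, 3228 of them, came from the Consortium for Functional Glycomics database and were retained only where the protein sequence was available. Z-scores were averaged across arrays of the same protein sequence at different concentrations or buffers and across linkers.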
# [2] = target: Neu5Ac(a2-6)GlcNAc(b1-4)GlcNAc
# In short: as §1
# [3] = target: Neu5Ac(a2-6)GlcNAc(b1-4)GlcNAc(b1-4)GlcNAc
# In short: as §1
# Neu5Ac(a2-8)Neu5Ac = target: Neu5Ac(a2-8)Neu5Ac
# In short: as §1
# [4] = target: Neu5Ac(a2-8)Neu5Ac(a2-3)Gal(b1-3)GalNAc(b1-4)[Neu5Ac(a2-3)]Gal(b1-4)Glc
# In short: as §1
# [5] = target: Neu5Ac(a2-8)Neu5Ac(a2-3)Gal(b1-3)GalNAc(b1-4)[Neu5Ac(a2-8)Neu5Ac(a2-3)]Gal(b1-4)Glc
# In short: as §1
# [6] = target: Neu5Ac(a2-8)Neu5Ac(a2-3)Gal(b1-4)Glc
# In short: as §1
# [7] = target: Neu5Ac(a2-8)Neu5Ac(a2-3)Gal(b1-4)GlcNAc
# In short: as §1
# [8] = target: Neu5Ac(a2-8)Neu5Ac(a2-3)[Gal(b1-3)GalNAc(b1-4)]Gal(b1-4)Glc
# In short: as §1
# [9] = target: Neu5Ac(a2-8)Neu5Ac(a2-3)[GalNAc(b1-4)]Gal(b1-4)Glc
# In short: as §1
# [10] = target: Neu5Ac(a2-8)Neu5Ac(a2-8)Neu5Ac
# In short: as §1
# [11] = target: Neu5Ac(a2-8)Neu5Ac(a2-8)Neu5Ac(a2-3)Gal(b1-4)Glc
# In short: as §1
# [12] = target: Neu5Ac(a2-8)Neu5Ac(a2-8)Neu5Ac(a2-3)[Gal(b1-3)GalNAc(b1-4)]Gal(b1-4)Glc
# In short: as §1
# [13] = target: Neu5Ac(a2-8)Neu5Ac(a2-8)Neu5Ac(a2-3)[GalNAc(b1-4)]Gal(b1-4)Glc
# In short: as §1
# [14] = target: Neu5Ac(a2-8)Neu5Ac(a2-8)Neu5Ac(a2-8)Neu5Ac(a2-3)[GalNAc(b1-4)]Gal(b1-4)Glc
# In short: as §1
# [15] = target: Neu5Ac(a2-8)Neu5Gc(a2-3)Gal(b1-4)GlcNAc
# In short: as §1
# [16] = target: Neu5Ac(b2-6)Gal(b1-4)GlcNAc
# In short: as §1
# Neu5Ac(b2-6)GalNAc = target: Neu5Ac(b2-6)GalNAc
# In short: as §1
# [17] = target: Neu5Ac9Ac(a2-3)Gal(b1-3)GlcNAc
# In short: as §1
# [18] = target: Neu5Ac9Ac(a2-3)Gal(b1-4)GlcNAc
# In short: as §1
# [19] = target: Neu5Ac9Ac(a2-6)Gal(b1-4)GlcNAc
# In short: as §1
# [20] = target: Neu5Gc(a2-3)Gal(b1-3)GlcNAc
# In short: as §1
# [21] = target: Neu5Gc(a2-3)Gal(b1-3)[Fuc(a1-4)]GlcNAc
# In short: as §1
# Neu5Gc(a2-3)Gal(b1-4)Glc = target: Neu5Gc(a2-3)Gal(b1-4)Glc
# In short: as §1
# [22] = target: Neu5Gc(a2-3)Gal(b1-4)GlcNAc
# In short: as §1
# [23] = target: Neu5Gc(a2-3)Gal(b1-4)GlcNAc(b1-3)Gal(b1-4)GlcNAc(b1-2)Man(a1-3)[Neu5Gc(a2-3)Gal(b1-4)GlcNAc(b1-3)Gal(b1-4)GlcNAc(b1-2)Man(a1-6)]Man(b1-4)GlcNAc(b1-4)GlcNAc
# In short: as §1
# [24] = target: Neu5Gc(a2-3)Gal(b1-4)[Fuc(a1-3)]GlcNAc
# In short: as §1
# [25] = target: Neu5Gc(a2-6)Gal(b1-4)GlcNAc
# In short: as §1
# Neu5Gc(a2-6)GalNAc = target: Neu5Gc(a2-6)GalNAc
# In short: as §1
# [26] = target: Neu5Gc(a2-8)Neu5Ac(a2-3)Gal(b1-4)GlcNAc
# In short: as §1
# [27] = target: Neu5Gc(a2-8)Neu5Gc(a2-3)Gal(b1-4)GlcNAc
# In short: as §1
# [28] = target: Neu5Gc(a2-8)Neu5Gc(a2-3)Gal(b1-4)GlcNAc(b1-3)Gal(b1-4)GlcNAc
# In short: as §1
# [29] = target: Neu5Gc(a2-8)Neu5Gc(a2-6)Gal(b1-4)GlcNAc
# In short: as §1
# [30] = target: Neu5Gc(b2-6)Gal(b1-4)GlcNAc
# In short: as §1
binder,measurement,setting,value
B1,glycan array binding signal (z-score),[1],-0.643
same,glycan array binding signal (z-score),[2],-0.869
same,glycan array binding signal (z-score),[3],-0.542
same,glycan array binding signal (z-score),Neu5Ac(a2-8)Neu5Ac,0.432
same,glycan array binding signal (z-score),[4],0.501
same,glycan array binding signal (z-score),[5],1.77
same,glycan array binding signal (z-score),[6],-1.09
same,glycan array binding signal (z-score),[7],-0.692
same,glycan array binding signal (z-score),[8],-0.737
same,glycan array binding signal (z-score),[9],0.558
same,glycan array binding signal (z-score),[10],-0.332
same,glycan array binding signal (z-score),[11],-0.359
same,glycan array binding signal (z-score),[12],0.702
same,glycan array binding signal (z-score),[13],-0.085
same,glycan array binding signal (z-score),[14],-0.15
same,glycan array binding signal (z-score),[15],-0.324
same,glycan array binding signal (z-score),[16],-0.832
same,glycan array binding signal (z-score),Neu5Ac(b2-6)GalNAc,-0.971
same,glycan array binding signal (z-score),[17],-0.098
same,glycan array binding signal (z-score),[18],-0.399
same,glycan array binding signal (z-score),[19],-0.386
same,glycan array binding signal (z-score),[20],-0.069
same,glycan array binding signal (z-score),[21],-0.455
same,glycan array binding signal (z-score),Neu5Gc(a2-3)Gal(b1-4)Glc,0.075
same,glycan array binding signal (z-score),[22],-0.584
same,glycan array binding signal (z-score),[23],1.38
same,glycan array binding signal (z-score),[24],0.255
same,glycan array binding signal (z-score),[25],-0.335
same,glycan array binding signal (z-score),Neu5Gc(a2-6)GalNAc,-1.14
same,glycan array binding signal (z-score),[26],-0.932
same,glycan array binding signal (z-score),[27],-0.973
same,glycan array binding signal (z-score),[28],-0.843
same,glycan array binding signal (z-score),[29],-0.752
same,glycan array binding signal (z-score),[30],1

# Taken from the results shown for reference:
binder,measurement,setting,value
B1,glycan array binding signal (z-score),[24],0.255
same,glycan array binding signal (z-score),[25],-0.335
